# Values from PubChem BioAssay AID1259254 (NCATS, 2017).
# Test: 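Gene knock-downs that lead to re-replication, shown by excess G2 DNA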 (primary screen)
# Cell system: human HCT116 colorectal cancer cells
# Knock-down reagent: single siRNA against human genes
# Timing: 3 days
# Read-out: 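Imaged Hoechst DNA stain sorts each cell into a cycle phase by DNA amount; per plate, G2 fraction set to 0% for non-targeting and 100% for GMNN siRNA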
# Reading the numbers: G2 robust z-score and G2 cells, % of GMNN control: higher = more G2 cells, more excess DNA replication
# Rule for the call: 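An siRNA counts as active if its G2 robust z-score lies at least 5 MADs above the screen median; here such calls match roughly 38% of GMNN control or more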
# In all, the deposit lists about 59,000 reagents; this is a part drawn at random. About 1,550 of all reagents (2.6%) count as active. 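G2 share is only a proxy for re-replication; each gene was hit by three separate siRNAs, and active genes were retested.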 Reagents against one gene are numbered here. Further read-outs or replicates are left out here. The record does not give: the amount of reagent.
target gene,reagent,G2 robust z-score,"G2 cells, % of GMNN control",Outcome
MCIDAS (GeneID 345643),1,-0.678,-1.8,inactive
MCIDAS (GeneID 345643),2,-0.901,-3.37,inactive
MCIDAS (GeneID 345643),3,2.49,20.5,inactive
TFB2M (GeneID 64216),1,0.43,5.99,inactive
TFB2M (GeneID 64216),2,-0.595,-1.22,inactive
TFB2M (GeneID 64216),3,1.18,11.3,inactive
PCDHA8 (GeneID 56140),1,-0.79,-2.59,inactive
PCDHA8 (GeneID 56140),2,-0.621,-1.4,inactive
PCDHA8 (GeneID 56140),3,2.9,23.4,inactive
CDC14A (GeneID 8556),1,-1.13,-4.96,inactive
CDC14A (GeneID 8556),2,-0.554,-0.934,inactive
CDC14A (GeneID 8556),3,-0.961,-3.79,inactive
SLC2A4RG (GeneID 56731),1,1.27,11.9,inactive
SLC2A4RG (GeneID 56731),2,-0.746,-2.28,inactive
SLC2A4RG (GeneID 56731),3,-0.729,-2.16,inactive
NOP16 (GeneID 51491),1,-0.0215,2.82,inactive
NOP16 (GeneID 51491),2,0.693,7.84,inactive
NOP16 (GeneID 51491),3,0.461,6.21,inactive
MARCHF6 (GeneID 10299),1,-1.21,-5.53,inactive
MARCHF6 (GeneID 10299),2,-0.454,-0.224,inactive
MARCHF6 (GeneID 10299),3,-0.434,-0.0881,inactive
ZFP30 (GeneID 22835),1,-0.642,-1.55,inactive
ZFP30 (GeneID 22835),2,0.864,9.05,inactive
ZFP30 (GeneID 22835),3,0.608,7.24,inactive
LOC727808 (retired record) (GeneID 727808),1,0.802,8.61,inactive
LOC727808 (retired record) (GeneID 727808),2,0.717,8.01,inactive
LOC727808 (retired record) (GeneID 727808),3,-0.968,-3.84,inactive
DEFB115 (GeneID 245929),1,-0.88,-3.22,inactive
DEFB115 (GeneID 245929),2,-0.709,-2.02,inactive
DEFB115 (GeneID 245929),3,-0.945,-3.68,inactive
MIR503HG (GeneID 84848),1,0.796,8.57,inactive
MIR503HG (GeneID 84848),2,0.148,4.01,inactive
MIR503HG (GeneID 84848),3,1.64,14.5,inactive
NAA35 (GeneID 60560),1,3.47,27.4,inactive
NAA35 (GeneID 60560),2,0.829,8.8,inactive
NAA35 (GeneID 60560),3,-0.362,0.418,inactive
SIGLEC6 (GeneID 946),1,-0.0554,2.58,inactive
SIGLEC6 (GeneID 946),2,-1.05,-4.44,inactive
SIGLEC6 (GeneID 946),3,-0.477,-0.385,inactive
FLJ40288 (GeneID 286023),1,0.486,6.39,inactive
FLJ40288 (GeneID 286023),2,0.226,4.56,inactive
FLJ40288 (GeneID 286023),3,-0.934,-3.61,inactive
DHX16 (GeneID 8449),1,-0.249,1.22,inactive
DHX16 (GeneID 8449),2,0.0469,3.3,inactive
DHX16 (GeneID 8449),3,-0.525,-0.723,inactive
C18orf54 (GeneID 162681),1,-0.974,-3.89,inactive
C18orf54 (GeneID 162681),2,-0.253,1.19,inactive
C18orf54 (GeneID 162681),3,0.412,5.87,inactive
DEFB1 (GeneID 1672),1,0.757,8.29,inactive
DEFB1 (GeneID 1672),2,4.54,34.9,inactive
DEFB1 (GeneID 1672),3,-0.719,-2.09,inactive
RBP7 (GeneID 116362),1,-0.192,1.61,inactive
RBP7 (GeneID 116362),2,-1.07,-4.53,inactive
RBP7 (GeneID 116362),3,-0.182,1.69,inactive
PDE12 (GeneID 201626),1,-0.0206,2.82,inactive
PDE12 (GeneID 201626),2,7.43,55.3,active
PDE12 (GeneID 201626),3,-0.0209,2.82,inactive
DKKL1 (GeneID 27120),1,0.793,8.55,inactive
DKKL1 (GeneID 27120),2,-0.467,-0.32,inactive
DKKL1 (GeneID 27120),3,-0.382,0.28,inactive
DENND6B (GeneID 414918),1,-0.536,-0.801,inactive
DENND6B (GeneID 414918),2,-0.371,0.354,inactive
DENND6B (GeneID 414918),3,4.91,37.5,inactive
ZNF202 (GeneID 7753),1,-0.472,-0.35,inactive
ZNF202 (GeneID 7753),2,1.32,12.2,inactive
ZNF202 (GeneID 7753),3,-1.09,-4.72,inactive
INSC (GeneID 387755),1,-0.637,-1.51,inactive
INSC (GeneID 387755),2,-0.151,1.91,inactive
INSC (GeneID 387755),3,3.04,24.3,inactive
FBXL4 (GeneID 26235),1,-0.544,-0.861,inactive
FBXL4 (GeneID 26235),2,-0.0674,2.49,inactive
FBXL4 (GeneID 26235),3,0.12,3.81,inactive
TEKT4P2 (GeneID 100132288),1,0.766,8.36,inactive
TEKT4P2 (GeneID 100132288),2,1.83,15.8,inactive
TEKT4P2 (GeneID 100132288),3,2.78,22.5,inactive
GSG1L2 (GeneID 644070),1,0.321,5.22,inactive
GSG1L2 (GeneID 644070),2,-0.437,-0.106,inactive
GSG1L2 (GeneID 644070),3,0.425,5.95,inactive
IFI27L2 (GeneID 83982),1,0.919,9.43,inactive
IFI27L2 (GeneID 83982),2,-0.263,1.11,inactive
IFI27L2 (GeneID 83982),3,0.94,9.58,inactive
PLS1 (GeneID 5357),1,1.3,12.1,inactive
PLS1 (GeneID 5357),2,2.39,19.8,inactive
PLS1 (GeneID 5357),3,0.0674,3.44,inactive
ZNF514 (GeneID 84874),1,-0.799,-2.65,inactive
ZNF514 (GeneID 84874),2,5.88,44.3,active
ZNF514 (GeneID 84874),3,-0.105,2.23,inactive

4 successive reagents from above, for reference:
target gene,reagent,G2 robust z-score,"G2 cells, % of GMNN control",Outcome
ZNF202 (GeneID 7753),3,-1.09,-4.72,inactive
INSC (GeneID 387755),1,-0.637,-1.51,inactive
INSC (GeneID 387755),2,-0.151,1.91,inactive
INSC (GeneID 387755),3,3.04,24.3,inactive
